Assay results taken from PMC6547406.

Sequences of proteins named here, by UniProt entry; tags and fusion partners are left off. Residues count along the entry.
UniProt P61244, 22-103 R25C: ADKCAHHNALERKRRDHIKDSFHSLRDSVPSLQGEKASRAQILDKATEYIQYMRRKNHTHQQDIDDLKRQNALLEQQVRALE
UniProt P61244, 22-103 G55C: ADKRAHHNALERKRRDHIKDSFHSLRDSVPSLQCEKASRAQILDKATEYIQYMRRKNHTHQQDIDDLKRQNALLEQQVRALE
UniProt P61244, 22-103 R75C: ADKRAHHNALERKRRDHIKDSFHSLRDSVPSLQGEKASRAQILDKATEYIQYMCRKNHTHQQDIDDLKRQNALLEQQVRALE

Key:
SL-R5C-MAX2 R25C [1] = target: SL-R5C-MAX2 R25C (UniProt P61244); assay: EPR (CW and DEER); conditions: MAX2:DNA 1:1, DEER on vitrified sample with 15% glycerol; recombinant protein
SL-R5C-MAX2 R25C [2] = target: SL-R5C-MAX2 R25C (UniProt P61244); assay: NMR (1H-15N HSQC/TROSY, PRE); conditions: MAX2:DNA 1:1, no residual apo-MAX2 observed; EBOX DNA:MAX2 1:1; DEER samples vitrified with 15% glycerol; recombinant protein
SL-G35C-MAX2 G55C = SL-G35C-MAX2 G55C (UniProt P61244); assay: EPR (DEER); conditions: MAX2:DNA 1:1, holo-state, vitrified with 15% glycerol; recombinant protein
SL-R55C-MAX2 R75C = SL-R55C-MAX2 R75C (UniProt P61244); assay: EPR (DEER); conditions: MAX2:DNA 1:1, holo-state, vitrified with 15% glycerol; recombinant protein

Measured: binding result

AAACACGTGAAA (double strand) [EBOX DNA]
binds: all assays above

The exact form of at least one protein or probe is not confirmed. For some of these results: At least one verdict rests on a figure or table, not on a statement of the authors.
